Experimental data reported in article PMC7819943, “Rice protein-binding microarrays: a tool to detect cis-acting elements near promoter regions in rice”.
This is one part of the list.

Protein sequences, listed by entry. Tags and fused reporters are not part of them.
UniProt Q0JBA9, entry or part of it: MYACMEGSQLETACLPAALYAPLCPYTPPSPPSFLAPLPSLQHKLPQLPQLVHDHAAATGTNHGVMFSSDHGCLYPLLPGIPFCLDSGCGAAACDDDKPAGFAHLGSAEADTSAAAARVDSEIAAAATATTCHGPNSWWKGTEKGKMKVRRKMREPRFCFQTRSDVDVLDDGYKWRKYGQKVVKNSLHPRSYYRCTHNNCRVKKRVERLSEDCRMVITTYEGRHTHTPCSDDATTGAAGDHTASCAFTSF

target: OsWRKY34 (Oryza sativa, UniProt Q0JBA9 1-250); experiment: protein-binding microarray (RPBM); PBS, 2% BSA, 51.3 ng/ul salmon testes DNA, 50 uM zinc acetate, 200 nM TF, 25 C, 1 h; high values mean tight binding; settings: protein: recombinant; tags: N-terminal polyhistidine and DsRed monomer fusion (pET32a); label: CyDye5-dUTP incorporated in the synthesized complementary strand; 3' TTTTT single-stranded linker to array surface; dsDNA, one strand shown
Summary of the method: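 Polyhistidine-tagged DsRed fusions of transcription factors, joined at the N-terminus, were expressed in E. coli BL21-CodonPlus and isolated on Ni–NTA. They were incubated at 200 nM for 1 h at 25 °C on a custom Agilent array, double-stranded and BSA-blocked, in PBS with 2% BSA, salmon testes DNA and 50 µM zinc acetate. The binding signal is per-feature fluorescence intensity (arbitrary units) read on an Axon 4000B scanner after washing.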

Sequence | binding signal
GTTGGTGACTCTTAGCTCAGTCGGCTCGTTATGTTTCTGACGGAGTCACCTAGTGCAG | 8990 fluorescence intensity (a.u.)
AAATAATTAATGACCTCCTAATATTTCATCATCGTCTTCTCGGAGTCACCTAGTGCAG | 9080 fluorescence intensity (a.u.)
AAAATCCTTTTGCAATATTTCATACTACCTTATGGGATATCGGAGTCACCTAGTGCAG | 8390 fluorescence intensity (a.u.)
GGCCCAACATAGCATTATCTAACCGGATCTACTACTGTACCGGAGTCACCTAGTGCAG | 8140 fluorescence intensity (a.u.)
CGGCAAGTTATCATTTACTCCCTCCGTCCCAAAATATAATCGGAGTCACCTAGTGCAG | 8340 fluorescence intensity (a.u.)
AAAATGTTACACCTACTATGTTGTTCCAATTTCTAAATCACGGAGTCACCTAGTGCAG | 8730 fluorescence intensity (a.u.)
ACAGCCGGACACCAATCTATTCCTGGGCCCATTTCTACGGCGGAGTCACCTAGTGCAG | 8820 fluorescence intensity (a.u.)
ATCAAAACTTTCCTACACACATAAACTTCTAACTTTTCCGCGGAGTCACCTAGTGCAG | 8040 fluorescence intensity (a.u.)
CGCCGTCTGCGAGATGCCCTTCGCCACCGTCGCGTCCGACCGGAGTCACCTAGTGCAG | 8650 fluorescence intensity (a.u.)
CCTCCGTCCCATAATATAAGGGATTTTGACTTTTTACTTGCGGAGTCACCTAGTGCAG | 10100 fluorescence intensity (a.u.)
CACGCGCCCGGCACGTGCTCATCGTCTTCACTCTCCCAACCGGAGTCACCTAGTGCAG | 8100 fluorescence intensity (a.u.)
GTGCGTCTTCTTTTTGCTACCTACCGTGCTAAAGCCAAAACGGAGTCACCTAGTGCAG | 9820 fluorescence intensity (a.u.)
GCTCTGTTCCCGCGACAATCCTCATCTTAGATTCCGCTTCCGGAGTCACCTAGTGCAG | 12200 fluorescence intensity (a.u.)
TCCCATCTCTCCCGATCTCTCGCCCATTTGCCACTGATCCCGGAGTCACCTAGTGCAG | 9820 fluorescence intensity (a.u.)
TGTGATAGGCTTCAATGTTTAATCTCACCATCGATTGTTACGGAGTCACCTAGTGCAG | 9500 fluorescence intensity (a.u.)
TTCTGTTCCATTTCCCATTCATCGCGCGTCGTCTCCACCTCGGAGTCACCTAGTGCAG | 13400 fluorescence intensity (a.u.)
ATTTGGGCCTCTCAACCGCTCATCCGTCCATTCGGCCCAACGGAGTCACCTAGTGCAG | 8220 fluorescence intensity (a.u.)
ATATCGAAATTGATGCTTGACCAGTCAACACTACTTAATCCGGAGTCACCTAGTGCAG | 9070 fluorescence intensity (a.u.)
TTCGGTTTGGATCCGGTTTGTTCCACCCTTGTTCGACGGTCGGAGTCACCTAGTGCAG | 11100 fluorescence intensity (a.u.)
CACTTTGCTCGTCGTCCGTGGTGGAGGCGCGGTGGGGTGGCGGAGTCACCTAGTGCAG | 12700 fluorescence intensity (a.u.)
GTATTACCGAAATTTGATAGTGTTGGTTTTGTTTGGACTTCGGAGTCACCTAGTGCAG | 8590 fluorescence intensity (a.u.)
TGGGCATTGTTTTTCTCATTTTCTTTTTCAGTGGCACTCACGGAGTCACCTAGTGCAG | 13000 fluorescence intensity (a.u.)
GCACTCTCTCTCGATCGTCTCTCGTCTCACCCTGAAGCCGCGGAGTCACCTAGTGCAG | 10500 fluorescence intensity (a.u.)
GATTGGATTGGATTGTTTTGCTGGCTCGCTCTCTCTCTCTCGGAGTCACCTAGTGCAG | 10200 fluorescence intensity (a.u.)
CTTATATAAAAGTCCTTGTCTCCAGTCTCTCTTACCTTAACGGAGTCACCTAGTGCAG | 8690 fluorescence intensity (a.u.)
CGCTTCCATCTCTCTCTGTCTCTCTTCTTTTTGACCTCTTCGGAGTCACCTAGTGCAG | 11900 fluorescence intensity (a.u.)
CTGCCTATTTATATACAATCCTACATGCTGTAGGAATCGCCGGAGTCACCTAGTGCAG | 8460 fluorescence intensity (a.u.)

Sequence | binding signal
CCTTCACCTCCTTGCAAGTTCCATTCTTTCATCTCGCTTCCGGAGTCACCTAGTGCAG | 16500 fluorescence intensity (a.u.)
TTCCACAAACACCTTGCCTGCATGCCATGCCATACCTTCTCGGAGTCACCTAGTGCAG | 9900 fluorescence intensity (a.u.)
CTCGGGAATTCGGGTGGTTTGGTTGGGTTTCGTGGAGAATCGGAGTCACCTAGTGCAG | 18700 fluorescence intensity (a.u.)
ACCCCTGGATACAAAGCATGCGCTTCTTTACCTTTGAAAGCGGAGTCACCTAGTGCAG | 9300 fluorescence intensity (a.u.)
TCCACTCTCTCCTCTCCTCTCTTGGACTCCACTCGCCCTCCGGAGTCACCTAGTGCAG | 8560 fluorescence intensity (a.u.)
GCGGCGACTTTCATCGCTTCACTCGTCATTTTCTCAAGCTCGGAGTCACCTAGTGCAG | 9180 fluorescence intensity (a.u.)
AGGTTTTGTAGGGGTGGTGGACTGGGCCACGGCCCATGGGCGGAGTCACCTAGTGCAG | 10400 fluorescence intensity (a.u.)
GCATTACGGTCTAGATGGGTTGTTTAACAGGGTTCATGGCCGGAGTCACCTAGTGCAG | 8030 fluorescence intensity (a.u.)
CTCTTTTGTTAGCTACAACACGTGGCCAGCATCGACGTAGCGGAGTCACCTAGTGCAG | 8280 fluorescence intensity (a.u.)
GAACGTCTGGACGTTGGAACACTCCATGTTTTTGTCTGATCGGAGTCACCTAGTGCAG | 8740 fluorescence intensity (a.u.)
CCTTTCTTTTGACACGGTTTTTCACCCTTACCGCTCTAGTCGGAGTCACCTAGTGCAG | 8430 fluorescence intensity (a.u.)
TCCCAGCCGTCCATCTCCTACGTGAGAGCTCCACCGCCACCGGAGTCACCTAGTGCAG | 9960 fluorescence intensity (a.u.)
GTGATAAACTCAACGACTGCCACTAACCTCCTCGCGTGCCCGGAGTCACCTAGTGCAG | 8480 fluorescence intensity (a.u.)
ATTGAGGTATTTTTTGCAACATCCCTTCGATGGCTATTTCCGGAGTCACCTAGTGCAG | 9080 fluorescence intensity (a.u.)
GGGTGAAGGCCACGTGCGTATCGACATGCCTATTTATTCTCGGAGTCACCTAGTGCAG | 8340 fluorescence intensity (a.u.)
AATAGTTCTTTTCTCTAAATTTATGATTTTTGACATATTTCGGAGTCACCTAGTGCAG | 8020 fluorescence intensity (a.u.)
GTATTTGGGCCTCGTAACTCAGGTTGGAACACCTACTCATCGGAGTCACCTAGTGCAG | 10700 fluorescence intensity (a.u.)
TCTCCCAGGCCACCATCGGCGTCCACATCCCGCCGTCCGCCGGAGTCACCTAGTGCAG | 8470 fluorescence intensity (a.u.)
GAGCCGAGCCAAACCTTGCTAGCCGGGGAGGGGTAGTTTTCGGAGTCACCTAGTGCAG | 10500 fluorescence intensity (a.u.)
AGAGGTGGAGGAAGTGGGTTAGTGGGTCCCACTATTTTTTCGGAGTCACCTAGTGCAG | 9680 fluorescence intensity (a.u.)
TTAGAGAGTGGCATATCGTCCCTTTTCTCGATCTGCACCACGGAGTCACCTAGTGCAG | 8580 fluorescence intensity (a.u.)
CTTCGTTTCTCGTCTTCGCCGGCGGCCGCCGCATTTCTGACGGAGTCACCTAGTGCAG | 8580 fluorescence intensity (a.u.)
AGCAAAATGCAGGCAGGGTCTCATCTTTTCACTTATATTTCGGAGTCACCTAGTGCAG | 8950 fluorescence intensity (a.u.)
AGAGGCTAGTGTTTGAGGGAGGGGAAGGGGATGAGAGGAGCGGAGTCACCTAGTGCAG | 10200 fluorescence intensity (a.u.)
TGCTGCCATGCTTCTATTTCATTTATATTTATTGCAGTATCGGAGTCACCTAGTGCAG | 10800 fluorescence intensity (a.u.)
AACAATCTTCACTAGAATTCATGTGCTGGCTTTATATTTGCGGAGTCACCTAGTGCAG | 9270 fluorescence intensity (a.u.)
AACTCATCTGACAGTGATCCATCGTCCTTTTTCTTTGACTCGGAGTCACCTAGTGCAG | 10100 fluorescence intensity (a.u.)
